According to the supplement of paper PMC10849652:
The list shows a part of the results.

By UniProt entry, the sequences of proteins in these tests, tags left out. Where a name states a change or a piece, a line headed by the entry shows the natural chain unless it says otherwise.
UniProt Q99755: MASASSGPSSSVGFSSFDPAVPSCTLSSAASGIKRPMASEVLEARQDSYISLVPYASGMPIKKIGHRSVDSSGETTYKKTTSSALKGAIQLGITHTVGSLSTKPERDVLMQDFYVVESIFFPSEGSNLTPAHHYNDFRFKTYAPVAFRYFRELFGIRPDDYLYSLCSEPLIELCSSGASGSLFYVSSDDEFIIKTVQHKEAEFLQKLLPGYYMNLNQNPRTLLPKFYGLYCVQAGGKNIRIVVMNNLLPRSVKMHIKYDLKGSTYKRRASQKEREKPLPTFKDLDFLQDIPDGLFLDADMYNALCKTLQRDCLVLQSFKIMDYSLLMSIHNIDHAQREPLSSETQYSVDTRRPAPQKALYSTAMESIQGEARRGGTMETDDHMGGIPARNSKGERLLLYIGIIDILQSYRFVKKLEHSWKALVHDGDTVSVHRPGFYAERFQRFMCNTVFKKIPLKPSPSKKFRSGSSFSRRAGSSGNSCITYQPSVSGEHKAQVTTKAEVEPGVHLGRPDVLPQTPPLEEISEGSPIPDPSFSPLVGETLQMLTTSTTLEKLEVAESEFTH
UniProt Q01970, whole entry, looked up: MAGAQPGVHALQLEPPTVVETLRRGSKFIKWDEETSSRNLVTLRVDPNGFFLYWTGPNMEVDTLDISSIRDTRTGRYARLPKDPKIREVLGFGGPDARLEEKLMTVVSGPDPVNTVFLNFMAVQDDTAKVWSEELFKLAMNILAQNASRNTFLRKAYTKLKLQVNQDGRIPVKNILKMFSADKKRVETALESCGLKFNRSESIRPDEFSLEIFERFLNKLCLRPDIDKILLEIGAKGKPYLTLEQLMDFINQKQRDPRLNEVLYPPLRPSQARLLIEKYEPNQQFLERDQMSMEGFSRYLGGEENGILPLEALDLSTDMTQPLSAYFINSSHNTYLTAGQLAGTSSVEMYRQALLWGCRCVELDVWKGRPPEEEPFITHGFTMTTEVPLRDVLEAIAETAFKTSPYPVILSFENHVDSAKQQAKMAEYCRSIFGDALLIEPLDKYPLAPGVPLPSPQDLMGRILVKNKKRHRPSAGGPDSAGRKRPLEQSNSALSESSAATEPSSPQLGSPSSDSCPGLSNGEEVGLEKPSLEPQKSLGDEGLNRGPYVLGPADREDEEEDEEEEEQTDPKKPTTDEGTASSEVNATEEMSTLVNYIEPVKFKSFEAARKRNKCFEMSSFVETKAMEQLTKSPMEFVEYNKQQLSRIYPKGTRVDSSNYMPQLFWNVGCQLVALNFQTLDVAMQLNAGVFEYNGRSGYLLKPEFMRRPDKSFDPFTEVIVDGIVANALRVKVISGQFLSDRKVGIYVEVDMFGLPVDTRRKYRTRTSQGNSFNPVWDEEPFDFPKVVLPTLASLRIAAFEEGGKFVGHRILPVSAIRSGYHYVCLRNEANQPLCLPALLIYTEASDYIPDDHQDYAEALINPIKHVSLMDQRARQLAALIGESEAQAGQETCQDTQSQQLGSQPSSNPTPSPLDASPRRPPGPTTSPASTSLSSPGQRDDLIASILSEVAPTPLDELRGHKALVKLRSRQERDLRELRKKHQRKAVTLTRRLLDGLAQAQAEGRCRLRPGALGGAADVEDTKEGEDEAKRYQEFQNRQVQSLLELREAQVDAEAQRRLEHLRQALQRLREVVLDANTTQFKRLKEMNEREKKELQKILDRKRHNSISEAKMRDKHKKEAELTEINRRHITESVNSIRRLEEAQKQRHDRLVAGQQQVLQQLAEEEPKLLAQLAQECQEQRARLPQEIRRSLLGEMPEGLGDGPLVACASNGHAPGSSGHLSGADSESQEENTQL
UniProt O95427: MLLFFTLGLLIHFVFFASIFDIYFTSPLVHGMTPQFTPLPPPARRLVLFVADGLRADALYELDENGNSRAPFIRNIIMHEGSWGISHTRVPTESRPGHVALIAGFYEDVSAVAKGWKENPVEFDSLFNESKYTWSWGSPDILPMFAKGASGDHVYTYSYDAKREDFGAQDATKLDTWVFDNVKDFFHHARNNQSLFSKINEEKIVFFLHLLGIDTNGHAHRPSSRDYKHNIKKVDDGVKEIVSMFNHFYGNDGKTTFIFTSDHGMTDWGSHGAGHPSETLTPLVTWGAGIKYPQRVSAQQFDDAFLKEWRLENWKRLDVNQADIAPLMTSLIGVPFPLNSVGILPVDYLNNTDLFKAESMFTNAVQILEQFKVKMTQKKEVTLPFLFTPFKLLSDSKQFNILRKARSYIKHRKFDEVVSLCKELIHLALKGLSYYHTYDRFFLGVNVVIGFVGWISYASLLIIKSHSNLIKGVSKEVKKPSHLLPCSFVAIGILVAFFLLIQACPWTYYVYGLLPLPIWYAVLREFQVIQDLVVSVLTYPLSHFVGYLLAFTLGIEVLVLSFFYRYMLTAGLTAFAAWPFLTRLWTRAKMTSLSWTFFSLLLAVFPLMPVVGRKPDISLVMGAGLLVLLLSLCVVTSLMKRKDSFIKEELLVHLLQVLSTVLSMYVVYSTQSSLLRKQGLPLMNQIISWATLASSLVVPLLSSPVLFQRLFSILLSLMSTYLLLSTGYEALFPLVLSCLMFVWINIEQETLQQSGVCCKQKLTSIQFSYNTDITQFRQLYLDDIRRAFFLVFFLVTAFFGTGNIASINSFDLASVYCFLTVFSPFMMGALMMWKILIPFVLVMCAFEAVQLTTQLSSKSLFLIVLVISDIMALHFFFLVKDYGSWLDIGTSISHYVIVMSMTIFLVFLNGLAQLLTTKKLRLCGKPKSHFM
UniProt Q8TBF5: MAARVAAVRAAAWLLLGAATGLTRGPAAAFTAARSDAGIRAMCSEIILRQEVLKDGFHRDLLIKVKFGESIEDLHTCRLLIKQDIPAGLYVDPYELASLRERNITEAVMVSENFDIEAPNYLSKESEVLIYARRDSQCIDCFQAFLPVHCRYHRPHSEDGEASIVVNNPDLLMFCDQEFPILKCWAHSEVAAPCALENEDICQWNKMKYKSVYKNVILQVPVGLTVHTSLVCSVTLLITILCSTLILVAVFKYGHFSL
UniProt Q92521: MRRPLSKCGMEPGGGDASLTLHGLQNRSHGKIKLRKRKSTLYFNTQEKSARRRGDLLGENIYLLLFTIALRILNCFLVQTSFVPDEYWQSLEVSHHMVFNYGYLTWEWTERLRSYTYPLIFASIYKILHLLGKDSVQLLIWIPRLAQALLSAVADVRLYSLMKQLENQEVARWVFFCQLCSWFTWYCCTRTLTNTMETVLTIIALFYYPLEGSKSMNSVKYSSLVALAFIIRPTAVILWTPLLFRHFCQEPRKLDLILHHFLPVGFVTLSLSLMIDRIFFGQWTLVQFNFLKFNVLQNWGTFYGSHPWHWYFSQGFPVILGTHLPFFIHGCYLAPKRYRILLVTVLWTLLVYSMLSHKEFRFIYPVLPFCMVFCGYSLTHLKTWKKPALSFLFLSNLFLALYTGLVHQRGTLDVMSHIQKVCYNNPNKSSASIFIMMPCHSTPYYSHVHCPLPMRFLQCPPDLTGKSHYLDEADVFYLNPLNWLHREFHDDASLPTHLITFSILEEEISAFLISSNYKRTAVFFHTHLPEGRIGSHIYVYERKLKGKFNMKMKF
UniProt Q9C010: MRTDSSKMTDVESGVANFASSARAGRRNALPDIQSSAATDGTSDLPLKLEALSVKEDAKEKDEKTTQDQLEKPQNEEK
UniProt Q9HB19: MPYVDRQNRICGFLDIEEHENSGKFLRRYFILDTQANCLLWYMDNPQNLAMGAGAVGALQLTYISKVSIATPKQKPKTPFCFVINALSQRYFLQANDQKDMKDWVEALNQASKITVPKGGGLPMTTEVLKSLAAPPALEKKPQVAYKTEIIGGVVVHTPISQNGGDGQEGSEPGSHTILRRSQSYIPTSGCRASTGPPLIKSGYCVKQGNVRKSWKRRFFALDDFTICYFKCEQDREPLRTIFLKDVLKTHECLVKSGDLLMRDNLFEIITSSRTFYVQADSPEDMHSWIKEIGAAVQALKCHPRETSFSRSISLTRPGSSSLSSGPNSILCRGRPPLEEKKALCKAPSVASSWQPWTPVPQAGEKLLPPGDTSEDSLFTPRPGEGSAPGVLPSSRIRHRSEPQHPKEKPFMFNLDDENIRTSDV
UniProt P78364: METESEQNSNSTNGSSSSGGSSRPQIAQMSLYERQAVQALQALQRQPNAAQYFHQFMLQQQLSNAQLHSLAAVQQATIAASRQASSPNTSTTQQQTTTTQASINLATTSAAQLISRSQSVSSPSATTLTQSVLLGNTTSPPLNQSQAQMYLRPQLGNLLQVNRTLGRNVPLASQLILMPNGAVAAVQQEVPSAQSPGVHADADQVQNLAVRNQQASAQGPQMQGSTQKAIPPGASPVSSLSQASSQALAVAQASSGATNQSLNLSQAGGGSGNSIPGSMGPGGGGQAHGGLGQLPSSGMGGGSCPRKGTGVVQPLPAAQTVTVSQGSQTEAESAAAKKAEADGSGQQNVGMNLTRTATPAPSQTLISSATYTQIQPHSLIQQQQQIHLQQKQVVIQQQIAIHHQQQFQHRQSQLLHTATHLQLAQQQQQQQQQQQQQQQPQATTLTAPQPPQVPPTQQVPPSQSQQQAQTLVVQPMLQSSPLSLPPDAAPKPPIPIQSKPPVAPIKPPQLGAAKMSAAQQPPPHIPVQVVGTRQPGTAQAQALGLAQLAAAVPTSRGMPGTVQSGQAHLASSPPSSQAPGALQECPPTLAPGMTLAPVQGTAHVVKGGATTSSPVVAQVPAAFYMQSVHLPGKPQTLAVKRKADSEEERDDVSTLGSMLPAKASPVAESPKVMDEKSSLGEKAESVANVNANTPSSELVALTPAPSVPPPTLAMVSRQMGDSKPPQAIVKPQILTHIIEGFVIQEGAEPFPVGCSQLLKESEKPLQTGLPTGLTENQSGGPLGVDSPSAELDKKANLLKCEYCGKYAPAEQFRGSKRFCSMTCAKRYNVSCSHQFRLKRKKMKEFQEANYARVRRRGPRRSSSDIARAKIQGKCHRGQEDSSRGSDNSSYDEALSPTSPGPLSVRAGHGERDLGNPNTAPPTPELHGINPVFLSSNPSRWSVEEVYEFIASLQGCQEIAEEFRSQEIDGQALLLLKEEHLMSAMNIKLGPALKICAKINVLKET
UniProt Q8IUZ5: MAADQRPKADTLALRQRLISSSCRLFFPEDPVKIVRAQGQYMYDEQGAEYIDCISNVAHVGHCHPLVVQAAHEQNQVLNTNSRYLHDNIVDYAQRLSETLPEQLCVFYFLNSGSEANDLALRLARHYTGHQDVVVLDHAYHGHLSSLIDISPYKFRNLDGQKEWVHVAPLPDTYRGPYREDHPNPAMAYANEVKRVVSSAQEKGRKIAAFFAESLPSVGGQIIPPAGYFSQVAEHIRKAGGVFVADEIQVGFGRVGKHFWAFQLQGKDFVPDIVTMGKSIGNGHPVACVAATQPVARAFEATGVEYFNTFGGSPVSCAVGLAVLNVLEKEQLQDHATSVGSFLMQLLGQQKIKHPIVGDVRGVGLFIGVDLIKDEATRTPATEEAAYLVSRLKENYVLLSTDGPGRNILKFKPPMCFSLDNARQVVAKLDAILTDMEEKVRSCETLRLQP
UniProt P11309, whole entry, looked up: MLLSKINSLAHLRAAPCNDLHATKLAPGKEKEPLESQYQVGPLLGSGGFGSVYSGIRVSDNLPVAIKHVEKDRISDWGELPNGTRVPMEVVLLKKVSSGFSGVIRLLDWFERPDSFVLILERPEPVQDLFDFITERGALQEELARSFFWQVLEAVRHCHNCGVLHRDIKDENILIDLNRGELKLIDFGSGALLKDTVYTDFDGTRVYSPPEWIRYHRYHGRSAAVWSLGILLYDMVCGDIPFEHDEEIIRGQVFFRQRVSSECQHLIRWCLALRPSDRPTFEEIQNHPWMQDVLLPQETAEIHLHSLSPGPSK
UniProt P78337, whole entry, looked up: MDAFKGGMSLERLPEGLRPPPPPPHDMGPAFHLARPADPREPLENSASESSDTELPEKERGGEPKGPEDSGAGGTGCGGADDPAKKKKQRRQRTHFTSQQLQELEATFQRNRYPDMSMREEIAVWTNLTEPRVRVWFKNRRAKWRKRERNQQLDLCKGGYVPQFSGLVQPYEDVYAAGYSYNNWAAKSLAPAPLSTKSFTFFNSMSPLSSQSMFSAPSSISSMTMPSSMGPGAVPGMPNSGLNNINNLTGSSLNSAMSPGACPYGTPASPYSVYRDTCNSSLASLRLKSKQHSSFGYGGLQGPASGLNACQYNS
UniProt P07205: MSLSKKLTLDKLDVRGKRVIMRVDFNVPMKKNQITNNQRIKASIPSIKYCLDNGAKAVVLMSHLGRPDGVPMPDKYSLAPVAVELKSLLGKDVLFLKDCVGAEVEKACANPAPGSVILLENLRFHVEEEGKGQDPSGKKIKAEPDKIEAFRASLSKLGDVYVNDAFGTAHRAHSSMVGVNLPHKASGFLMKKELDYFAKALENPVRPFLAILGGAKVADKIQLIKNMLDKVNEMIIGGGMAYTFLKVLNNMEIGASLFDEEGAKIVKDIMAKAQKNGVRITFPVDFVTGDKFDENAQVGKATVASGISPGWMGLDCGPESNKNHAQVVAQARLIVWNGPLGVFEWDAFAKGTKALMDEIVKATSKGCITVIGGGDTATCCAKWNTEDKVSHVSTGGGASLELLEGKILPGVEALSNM

Legend:
Test in all cases: log2 fold change, soluble protein after heating vs DMSO (PISA); higher = thermal stabilisation; K562 lysate, 10 uM; active = over 0.2 and 3.5 SD of the protein, either way, in both replicates (recomputed)
ibrutinib = compound: C=CC(=O)N1CCC[C@@H](n2nc(-c3ccc(Oc4ccccc4)cc3)c3c(N)ncnc32)C1 [ibrutinib]
Summary of the method: (§1)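 Quantification was by TMTpro 16plex LC-MS/MS with equalised channel sums, applied to the supernatant after 21,000xg for 90 min. Samples were crude K562 extract at 1 mg/mL protein in PBS pH 7.4 with 1 mM MgCl2, treated with 10 μM compound for 30 min, heated for 3 min across 48°C-58°C, pooled and brought to 0.5% NP-40 at 4°C. Values are log-two fold changes in thermal stability relative to solvent controls, from duplicates.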

[1] = compound: CC(=O)c1cnc2ccc(-c3cc(Cl)c(O)c(Cl)c3)nc2c1N[C@H]1CC[C@H](CN(C)C)CC1
Summary of the method: as §1

ralimetinib = compound: CC(C)(C)Cn1c(N)nc2ccc(-c3[nH]c(C(C)(C)C)nc3-c3ccc(F)cc3)nc21 [ralimetinib]
Summary of the method: as §1

[2] = compound: CC(C)(O)CC(=O)NCCn1ccc2ncnc(Nc3ccc(Oc4cccc(C(F)(F)F)c4)c(Cl)c3)c21
Summary of the method: as §1

[3] = compound: CC(C)C1=C2N=C(C=C(N2N=C1)NCC3=CC=CC=C3)NCCCCCCN
Summary of the method: as §1

[4] = compound: CC1=C(C(CC(=O)N1)C2=CC=C(C=C2)C(F)(F)F)C(=O)NC3=C(C=C4C(=C3)C=NN4)F
Summary of the method: as §1

[5] = compound: CC1=C(C2=C(C=C1)C(=O)C3=CC=CC=C3N2CCCN)C
Summary of the method: as §1

[6] = compound: CC1=C(C=C(C=C1)NC(=O)C2=CC(=CC=C2)C(C)(C)C#N)NC3=CC4=C(C=C3)N=CN(C4=O)C
Summary of the method: as §1

[7] = compound: CC1=C(C=C(C=C1)NC(=O)C2=CC(=CC=C2)N(C)C)NC(=O)C3=CC=C(C=C3)O
Summary of the method: as §1

[8] = compound: CC1=CC=C(C=C1)SC2=C3C=C(SC3=CN=C2)C(=O)N
Summary of the method: as §1

[9] = compound: CCCS(=O)(=O)Nc1ccc(F)c(C(=O)c2c[nH]c3ncc(Cl)cc23)c1F
Summary of the method: as §1

barasertib = compound: CCN(CCCOc1ccc2c(Nc3cc(CC(=O)Nc4cccc(F)c4)[nH]n3)ncnc2c1)CCOP(=O)(O)O [barasertib]
Summary of the method: as §1

volasertib = compound: CC[C@@H]1C(=O)N(C)c2cnc(Nc3ccc(C(=O)N[C@H]4CC[C@H](N5CCN(CC6CC6)CC5)CC4)cc3OC)nc2N1C(C)C [volasertib]
Summary of the method: as §1

[10] = compound: CCn1c(C(=O)N(C2CC2)C2CC2)cc2c3c(ncn3C)c(Nc3cc(C)n(C)n3)nc21
Summary of the method: as §1

[11] = compound: CCn1cc(-c2ccnc3[nH]c(-c4cccc(CN(C)C)c4)cc23)c(-c2ccc(NC(=O)N(C)C)cc2)n1
Summary of the method: as §1

[12] = compound: CN1CCC(CNc2ccc3ncc(-c4cccc(OC(F)(F)F)c4)n3n2)CC1
Summary of the method: as §1

saracatinib = compound: CN1CCN(CCOc2cc(OC3CCOCC3)c3c(Nc4c(Cl)ccc5c4OCO5)ncnc3c2)CC1 [saracatinib]
Summary of the method: as §1

sotrastaurin = compound: CN1CCN(c2nc(C3=C(c4c[nH]c5ccccc45)C(=O)NC3=O)c3ccccc3n2)CC1 [sotrastaurin]
Summary of the method: as §1

vemurafenib = compound: CCCS(=O)(=O)Nc1ccc(F)c(C(=O)c2c[nH]c3ncc(-c4ccc(Cl)cc4)cc23)c1F [vemurafenib]
Summary of the method: as §1

[13] = compound: CC[C@@H]1C(=O)N(C)c2cnc(Nc3ccc(C(=O)NC4CCN(C)CC4)cc3OC)nc2N1C1CCCC1
Summary of the method: as §1

Measured: log2 fold change

PIP5K1A (UniProt Q99755)
inactive: ibrutinib 0.012 | [1] 0.201 | ralimetinib -0.053 | [2] 0.001 | [3] 0 | [4] 0.056 | [5] -0.127 | [6] 0.105 | [7] 0.02 | [8] -0.053 | [9] 0.029 | barasertib 0.108 | volasertib 0.07 | [10] -0.041 | [11] 0.027 | saracatinib 0.107 | sotrastaurin -0.018
active: [12] -0.514

PLCB3 (UniProt Q01970)
inactive: ibrutinib 0.011 | [1] 0.013 | ralimetinib -0.01 | [2] -0.02 | [3] -0.01 | [4] -0.02 | [5] -0.002 | [6] -0.007 | [7] 0.007 | [8] 0.029 | vemurafenib -0.006 | [9] -0.006 | barasertib -0.006 | [13] 0.013 | volasertib -0.006 | [10] 0.011 | [11] 0.027 | [12] -0.013 | saracatinib 0.014 | sotrastaurin 0.004

PIGN (UniProt O95427)
inactive: [1] 0.143 | ralimetinib 0.043 | [2] -0.02 | [3] -0.032 | [5] 0.01 | [7] -0.014 | [8] -0.042 | vemurafenib 0.045 | [9] -0.135 | [13] 0.053 | volasertib -0.022 | [10] -0.023 | saracatinib -0.038

PIGX isoform 2 (UniProt Q8TBF5)
inactive: ibrutinib -0.007 | [1] 0.133 | ralimetinib 0.082 | [2] -0.259 | [4] -0.112 | [5] 0.036 | [6] 0.107 | [7] 0.167 | [8] 0.044 | [9] 0.051 | barasertib -0.029 | [13] 0.077 | volasertib -0.003 | [10] -0.202 | [11] -0.169 | [12] 0.153 | saracatinib 0.11 | sotrastaurin -0.029

PHLPP1 (UniProt O60346)
inactive: ibrutinib -0.233 | ralimetinib 0.04 | [2] 0.123 | [3] 0.104 | [4] 0.06 | [5] -0.045 | [6] 0.016 | [7] -0.146 | vemurafenib -0.001 | barasertib 0.008 | [10] -0.171 | [11] -0.076 | [12] -0.032 | saracatinib 0.157 | sotrastaurin -0.049

PHGDH, A0A286YFE1
inactive: ibrutinib 0.032 | [1] 0.084 | [5] -0.458 | [8] 0.107 | [9] 0.158 | barasertib 0.364 | volasertib 0.083 | saracatinib -0.318

PIGB (UniProt Q92521)
inactive: ibrutinib 0.049 | ralimetinib 0.108 | [2] -0.012 | [6] -0.134 | [7] 0.02 | vemurafenib -0.17 | barasertib 0.049 | [13] 0.17 | [10] -0.009 | [11] -0.117 | [12] 0.161 | sotrastaurin 0.069

Quoted from the results shown (2 entries):
PHGDH, A0A286YFE1
inactive: ibrutinib 0.032 | [1] 0.084 | [5] -0.458 | [8] 0.107 | [9] 0.158 | barasertib 0.364 | volasertib 0.083 | saracatinib -0.318

PIGB (UniProt Q92521)
inactive: ibrutinib 0.049 | ralimetinib 0.108 | [2] -0.012 | [6] -0.134 | [7] 0.02 | vemurafenib -0.17 | barasertib 0.049 | [13] 0.17 | [10] -0.009 | [11] -0.117 | [12] 0.161 | sotrastaurin 0.069

(list continues)

PHKG1 isoform 2 (UniProt Q16816)
inactive: [1] 0.595 | ralimetinib 0.02 | [2] -0.016 | [3] -0.003 | [4] -0.117 | [5] -0.196 | [6] 0.017 | [7] -0.02 | [8] -0.086 | vemurafenib -0.197 | [9] -0.037 | [13] -0.062 | volasertib 0.033 | [10] 0.054 | [12] 0.64 | saracatinib 0.177 | sotrastaurin -0.269
active: [11] -0.867

PKIB isoform 2 (UniProt Q9C010)
inactive: [1] -0.056 | ralimetinib -0.114 | [2] 0.039 | [7] 0.136 | [8] -0.191 | [9] -0.074 | volasertib 0.018 | [10] -0.076 | [11] -0.112 | [12] 0.1

PLEKHA2 (UniProt Q9HB19)
inactive: ibrutinib -0.079 | ralimetinib 0.079 | [2] 0 | [3] 0.047 | [4] -0.087 | [5] -0.135 | [6] 0.131 | [7] -0.239 | barasertib -0.004 | [10] 0.052 | [11] -0.212 | [12] -0.06 | saracatinib 0.098 | sotrastaurin -0.029

PHF19 isoform 2 (UniProt Q5T6S3)
inactive: ibrutinib -0.074 | vemurafenib -0.06 | barasertib 0.055 | [13] 0.134 | [11] 0.087 | [12] 0.08

PHC1 (UniProt P78364)
active: [6] 0.443
inactive: ibrutinib 0.027 | [4] 0.044 | [5] -0.117 | vemurafenib 0.042 | barasertib 0.034 | [13] 0.097 | saracatinib 0.066 | sotrastaurin -0.354

PHYKPL (UniProt Q8IUZ5)
inactive: ibrutinib 0.075 | [1] -0.035 | ralimetinib 0.024 | [2] 0.113 | [3] 0.054 | [5] 0.042 | [6] -0.006 | [7] 0.025 | [8] -0.011 | vemurafenib 0.019 | [9] 0.03 | barasertib 0.033 | [13] -0.155 | volasertib 0.018 | [10] 0.138 | [11] -0.015 | [12] 0.033 | saracatinib -0.009 | sotrastaurin -0.053

PKM (UniProt P14618)
inactive: [1] 0.008 | ralimetinib -0.01 | [2] -0.013 | [3] 0.012 | [4] -0.027 | [5] 0.048 | [6] 0.014 | [7] -0.002 | [8] 0.014 | vemurafenib 0.019 | [9] 0.002 | barasertib -0.025 | [13] 0.032 | volasertib -0.02 | [10] -0.04 | [11] -0.082 | [12] 0.029 | saracatinib -0.018 | sotrastaurin -0.048

PIM1 isoform 2 (UniProt P11309)
inactive: ibrutinib -0.138 | ralimetinib 0.042 | [2] 0.122 | [3] -0.038 | [4] -0.014 | [5] 0.054 | [6] 0.01 | [7] 0.054 | vemurafenib -0.061 | barasertib 0.139 | [13] 0.002 | [10] 0.073 | [11] -0.068 | saracatinib 0
active: [12] 1.46 | sotrastaurin 0.593

PIGM (UniProt Q9H3S5)
inactive: ibrutinib 0.116 | [1] 0.098 | ralimetinib 0.051 | [2] -0.132 | [3] 0.028 | [6] 0.002 | [7] 0.082 | [8] -0.005 | vemurafenib 0.074 | [9] 0.049 | barasertib 0.058 | [13] 0.04 | volasertib 0.075 | [10] -0.022 | sotrastaurin -0.014

PITX1 (UniProt P78337)
inactive: ibrutinib 0.001 | [5] -0.027 | [6] -0.028 | vemurafenib -0.064 | barasertib -0.088 | [13] -0.061 | saracatinib -0.016 | sotrastaurin -0.015

PKM (UniProt H3BTN5)
inactive: ibrutinib 0.013 | [1] 0.094 | [3] 0.034 | [6] 0.012 | [8] -0.295 | vemurafenib 0.036 | [9] -0.082 | barasertib -0.099 | [13] -0.077 | volasertib 0.104 | sotrastaurin 0.032

PGM3 (UniProt D6RCQ8)
inactive: ibrutinib 0.382 | [1] 0.036 | [8] 0.17 | [9] -0.235 | barasertib 0.183 | volasertib -0.011

PGK2 (UniProt P07205)
inactive: [1] -0.068 | ralimetinib 0.048 | [2] 0.036 | [7] -0.055 | [8] 0.017 | vemurafenib -0.057 | [9] 0.061 | [13] -0.183 | volasertib -0.094 | [10] -0.029 | [11] 0.038 | [12] -0.153

PLAU (UniProt P00749)
inactive: [1] -0.327 | ralimetinib -0.037 | [2] -0.115 | [3] 0.089 | [4] 0.078 | [5] 0.295 | [7] 0.08 | [8] -0.132 | [9] -0.416 | [13] 0.033 | volasertib 0.149 | [10] 0.143 | saracatinib 0.249

PLEC isoform 3 (UniProt Q15149)
inactive: ibrutinib 0.138 | [6] -0.011 | vemurafenib 0.057 | barasertib 0.116 | [13] -0.268 | [11] 0.064 | [12] -0.228 | sotrastaurin 0.08

PIP5K1B isoform 2 (UniProt O14986)
inactive: ibrutinib -0.116 | [6] -0.328 | barasertib -0.155 | sotrastaurin 0.053
